PubChem BioAssay AID504744 – Drosophila RNAi Screening Center – 2011
Test: 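Identify dsRNAs that increase or decrease phospho-dAkt after insulin treatment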 (primary screen). System: Drosophila Kc167 cells. Reagents: long dsRNA against Drosophila genes, 250 ng dsRNA per well of a 384-well plate. Duration: 3 days of knock-down, then overnight serum-free starvation before stimulation. Challenge: bovine insulin at 387 nM for 10 minutes after 12 h without serum. Measurement: 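In-cell antibody fluorescence for phospho-dAkt in each well over DNA-dye signal, with log2 residuals expressed as z-scores adjusted for cell count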. Rule for the call: 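Under insulin, a gene counts as a hit if the average z-score of two replicates lies above 2.5 or below -2.5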.
The screen tested about 23,000 reagents; this is an unselected part of those with a known target gene and a result. Of all reagents, 98 (0.43%) were called active. 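Only hit calls are given; the phospho-dAkt signals, z-scores and hit direction were not deposited.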 Reagents against one gene are numbered here. A plus sign joins genes that one reagent is predicted to hit. No sequences are given here.

target gene | reagent | Outcome
CG11523 | 1 | inactive
Incenp (Inner centromere protein) | 1 | inactive
Incenp (Inner centromere protein) | 2 | inactive
CG9372 | 1 | inactive
Pex3 (Peroxin 3) | 1 | inactive
Cpr65Au (Cuticular protein 65Au) | 1 | inactive
roq (roquin) | 1 | inactive
eve (even skipped) | 1 | inactive
CG12279 | 1 | inactive
CG1161 | 1 | inactive
CG10616 | 1 | inactive
Mur11Da (Mucin related 11Da) | 1 | inactive
Cyp309a1 (Cytochrome P450 309a1) | 1 | inactive
Daxx (Daxx-like protein) | 1 | inactive
sktl (skittles) | 1 | active
Cyp6v1 (Cytochrome P450 6v1) | 1 | inactive
or (orange) | 1 | inactive
Nop60B (Nucleolar protein at 60B) | 1 | inactive
CG12531 | 1 | inactive
E2f1 (E2F transcription factor 1) | 1 | inactive
CG32756 | 1 | inactive
Cpr76Bd (Cuticular protein 76Bd) | 1 | inactive
CG8236 | 1 | inactive
Ir48b (Ionotropic receptor 48b) | 1 | inactive
CG12814 | 1 | inactive
CG12814 | 2 | inactive
CG3078 | 1 | inactive
Hex-A (Hexokinase A) | 1 | inactive
Fgop2 (Fibroblast growth factor receptor 1 oncogene partner 2) | 1 | inactive
Gagr (Gag-related) | 1 | inactive
ClC-a (Chloride channel-a) | 1 | inactive
ClC-a (Chloride channel-a) | 2 | inactive
ClC-a (Chloride channel-a) | 3 | inactive
Obp56d (Odorant-binding protein 56d) | 1 | inactive
Noc3 (Nucleolar complex protein 3) | 1 | inactive
Dgat2 (Diacylglycerol O-acyltransferase 2) | 1 | inactive
CG34163 | 1 | inactive
unc-4 | 1 | inactive
unc-4 | 2 | inactive
CG7328 | 1 | inactive
CG33476 | 1 | inactive
Rcd4 (Reduction in Cnn dots 4) | 1 | inactive
Ref1 (RNA and export factor binding protein 1) | 1 | inactive
Ref1 (RNA and export factor binding protein 1) | 2 | inactive
CG18641 | 1 | inactive
Hmg-2 (High mobility group protein 2) | 1 | inactive
PH4alphaNE2 (prolyl-4-hydroxylase-alpha NE2) | 1 | inactive
lectin-28C | 1 | inactive
Rrp46 | 1 | inactive
CG31100 | 1 | inactive
CG31100 | 2 | inactive
CG7102 | 1 | inactive
CG7102 | 2 | inactive
Pex19 (Peroxin 19) | 1 | inactive

Next part, starting with the last 17 of the part before.
target gene | reagent | Outcome
unc-4 | 1 | inactive
unc-4 | 2 | inactive
CG7328 | 1 | inactive
CG33476 | 1 | inactive
Rcd4 (Reduction in Cnn dots 4) | 1 | inactive
Ref1 (RNA and export factor binding protein 1) | 1 | inactive
Ref1 (RNA and export factor binding protein 1) | 2 | inactive
CG18641 | 1 | inactive
Hmg-2 (High mobility group protein 2) | 1 | inactive
PH4alphaNE2 (prolyl-4-hydroxylase-alpha NE2) | 1 | inactive
lectin-28C | 1 | inactive
Rrp46 | 1 | inactive
CG31100 | 1 | inactive
CG31100 | 2 | inactive
CG7102 | 1 | inactive
CG7102 | 2 | inactive
Pex19 (Peroxin 19) | 1 | inactive
CG32712 | 1 | inactive
CG12964 | 1 | inactive
CG42307 + mus312 | 1 | inactive
CG32248 | 1 | inactive
mbl (muscleblind) | 1 | inactive
mbl (muscleblind) | 2 | inactive
mbl (muscleblind) | 3 | inactive
Eglp4 (Entomoglyceroporin 4) | 1 | inactive
EMC10 (ER membrane protein complex subunit 10) | 1 | inactive
vkg (viking) | 1 | inactive
miple2 (midkine and pleiotrophin 2) | 1 | inactive
CG14341 | 1 | inactive
bab1 (bric a brac 1) | 1 | inactive
bab1 (bric a brac 1) | 2 | inactive
bab1 (bric a brac 1) | 3 | inactive
ave (aveugle) | 1 | inactive
CG18568 | 1 | inactive
Rhp (Rhophilin) | 1 | inactive
Hydr1 (alpha/beta hydrolase 1) | 1 | inactive
CG13833 | 1 | inactive
Tsp42Ei (Tetraspanin 42Ei) | 1 | inactive
CG32188 | 1 | inactive
Tsp29Fb (Tetraspanin 29Fb) | 1 | inactive
Nhe3 (Na[+]/H[+] hydrogen exchanger 3) | 1 | inactive
CG4610 | 1 | inactive
CG4610 | 2 | inactive
CG31638 | 1 | inactive
CG31638 | 2 | inactive
Mst89B | 1 | inactive
CG13594 | 1 | inactive
CG10651 | 1 | inactive
CG32354 | 1 | inactive
CG32354 | 2 | inactive
CG32354 | 3 | inactive
D (Dichaete) | 1 | inactive
cl (clot) | 1 | inactive
CG14692 | 1 | inactive
CalpA (Calpain-A) | 1 | inactive
mRpL15 (mitochondrial ribosomal protein L15) | 1 | inactive
norpA (no receptor potential A) | 1 | inactive
mRpS18A (mitochondrial ribosomal protein S18A) | 1 | inactive
mid (midline) | 1 | inactive
mid (midline) | 2 | inactive
Sec22 (Secretory 22) | 1 | inactive
CG7810 | 1 | inactive
Sry-delta (Serendipity delta) | 1 | inactive
Pkc53E (Protein C kinase 53E) | 1 | inactive
Pkc53E (Protein C kinase 53E) | 2 | inactive
CG30178 | 1 | inactive
CG42755 (retired record) | 1 | inactive
CG42755 (retired record) | 2 | inactive
Polr2L (RNA polymerase II, I and III subunit L) | 1 | inactive
KLHL18 (Kelch like family member 18) | 1 | inactive
CG1607 | 1 | inactive
CG2233 | 1 | inactive
CG4101 | 1 | inactive
CG15169 | 1 | inactive
hoe1 (hoepel1) | 1 | inactive
hoe1 (hoepel1) | 2 | inactive
hoe1 (hoepel1) | 3 | inactive
CG32055 | 1 | inactive
pHCl-2 (pH-sensitive chloride channel 2) | 1 | inactive
CG11068 | 1 | inactive
Pmm2 (Phosphomannomutase type 2) | 1 | inactive
CG6707 | 1 | inactive
Glg1 (Golgi complex-localized glycoprotein 1) | 1 | inactive
Glg1 (Golgi complex-localized glycoprotein 1) | 2 | inactive
Glg1 (Golgi complex-localized glycoprotein 1) | 3 | inactive
Ugt302C1 (UDP-glycosyltransferase family 302 member C1) | 1 | inactive
bowl | 1 | inactive
CG4291 | 1 | inactive
CG15912 | 1 | inactive
CG7139 | 1 | inactive
CG14803 | 1 | inactive
phr6-4 ((6-4)-photolyase) | 1 | inactive
stwl (stonewall) | 1 | inactive
acs (arcus) | 1 | inactive
fz4 (frizzled 4) | 1 | inactive
Ama (Amalgam) | 1 | inactive
sll (slalom) | 1 | inactive
Mics1 (Mitochondrial morphology and cristae structure 1) | 1 | inactive
CG33475 | 1 | inactive
CG5592 | 1 | inactive
CG8461 | 1 | inactive
Strica (Ser/Thr-rich caspase) | 1 | inactive
CG7824 | 1 | inactive
Arl4 (ADP ribosylation factor-like 4) | 1 | inactive
CAH4 (Carbonic anhydrase 4) | 1 | inactive
CG17234 | 1 | inactive
CG13228 | 1 | inactive
Rpt5 (Regulatory particle triple-A ATPase 5) | 1 | inactive
CG9896 | 1 | inactive
CG9896 | 2 | inactive
Kap-alpha1 (karyopherin alpha1) | 1 | inactive
Ac78C (Adenylyl cyclase 78C) | 1 | inactive
Ac78C (Adenylyl cyclase 78C) | 2 | inactive
Ac78C (Adenylyl cyclase 78C) | 3 | inactive
CG6675 | 1 | inactive
CG33007 (retired record) | 1 | inactive
CG4741 | 1 | inactive
CG15576 | 1 | inactive
Itpr (Inositol 1,4,5,-trisphosphate receptor) | 1 | inactive
Prosbeta4R2 (Proteasome beta4 subunit-related 2) | 1 | inactive
